Experimental data taken from publication PMC10201424.
No constants are given. Whether binding was seen depends on the method and setting. Some binding calls cover weakened binding; strength is not graded here. Where a sequence is shown, tags or fusion partners need not be part of it.

What was measured:
[1] = molecular target: T1, GST-Rmi1 (S. cerevisiae) (UniProt Q02685); assay: co-purification (glutathione affinity, ResourceS, SEC); untagged Top3 co-expressed with GST-Rmi1 in Hi5 cells and purified through GST-Rmi1
T1 sequence: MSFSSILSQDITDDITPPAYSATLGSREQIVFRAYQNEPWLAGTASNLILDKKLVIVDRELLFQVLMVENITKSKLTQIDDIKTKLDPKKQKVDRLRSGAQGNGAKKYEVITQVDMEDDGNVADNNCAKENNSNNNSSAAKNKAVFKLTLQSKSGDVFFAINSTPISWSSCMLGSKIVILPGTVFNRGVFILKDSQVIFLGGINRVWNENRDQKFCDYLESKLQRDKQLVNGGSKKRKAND

[2] = molecular target: T2, MBP-Mlh2 (chain of the MBP-Mlh1/MBP-Mlh2 complex) (S. cerevisiae) (UniProt Q07980); assay: cross-linking; XL-MS with DSBU of the 5-subunit Mer3/Mlh1/Mlh2/Top3/Rmi1 complex, proteins 3 μM, 1 h at 25°C; both purified
T2 sequence: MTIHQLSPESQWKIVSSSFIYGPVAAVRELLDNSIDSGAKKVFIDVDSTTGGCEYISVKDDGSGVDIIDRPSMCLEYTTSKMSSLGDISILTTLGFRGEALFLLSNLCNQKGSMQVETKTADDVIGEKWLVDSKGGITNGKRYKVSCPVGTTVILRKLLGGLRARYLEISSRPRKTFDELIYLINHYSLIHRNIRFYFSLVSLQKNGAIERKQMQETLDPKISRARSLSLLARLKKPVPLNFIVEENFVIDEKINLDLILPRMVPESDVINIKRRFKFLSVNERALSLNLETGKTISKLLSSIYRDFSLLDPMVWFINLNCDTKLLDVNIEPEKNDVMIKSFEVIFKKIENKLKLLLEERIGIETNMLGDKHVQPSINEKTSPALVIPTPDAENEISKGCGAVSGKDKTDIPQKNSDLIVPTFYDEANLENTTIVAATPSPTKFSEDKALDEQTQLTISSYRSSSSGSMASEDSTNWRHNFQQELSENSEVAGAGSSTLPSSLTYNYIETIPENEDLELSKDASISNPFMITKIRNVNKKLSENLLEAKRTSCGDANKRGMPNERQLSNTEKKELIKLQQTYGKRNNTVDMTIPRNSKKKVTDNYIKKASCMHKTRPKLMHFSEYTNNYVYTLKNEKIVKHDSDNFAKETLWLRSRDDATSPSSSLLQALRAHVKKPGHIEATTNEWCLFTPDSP

B1: Top3, untagged (chain of the Top3/Rmi1 complex) (enzyme, UniProt P13099 1-656)
chain: MKVLCVAEKNSIAKAVSQILGGGRSTSRDSGYMYVKNYDFMFSGFPFARNGANCEVTMTSVAGHLTGIDFSHDSHGWGKCAIQELFDAPLNEIMNNNQKKIASNIKREARNADYLMIWTDCDREGEYIGWEIWQEAKRGNRLIQNDQVYRAVFSHLERQHILNAARNPSRLDMKSVHAVGTRIEIDLRAGVTFTRLLTETLRNKLRNQATMTKDGAKHRGGNKNDSQVVSYGTCQFPTLGFVVDRFERIRNFVPEEFWYIQLVVENKDNGGTTTFQWDRGHLFDRLSVLTFYETCIETAGNVAQVVDLKSKPTTKYRPLPLTTVELQKNCARYLRLNAKQSLDAAEKLYQKGFISYPRTETDTFPHAMDLKSLVEKQAQLDQLAAGGRTAWASYAASLLQPENTSNNNKFKFPRSGSHDDKAHPPIHPIVSLGPEANVSPVERRVYEYVARHFLACCSEDAKGQSMTLVLDWAVERFSASGLVVLERNFLDVYPWARWETTKQLPRLEMNALVDIAKAEMKAGTTAPPKPMTESELILLMDTNGIGTDATIAEHIDKIQVRNYVRSEKVGKETYLQPTTLGVSLVHGFEAIGLEDSFAKPFQRREMEQDLKKICEGHASKTDVVKDIVEKYRKYWHKTNACKNTLLQVYDRVKASM
binding [1]: binds | binding [2]: binds
